# Assay results from the supplement of paper PMC8728848.
# This is one part of the list.
# B1: Mcg Light Chain Dimer (Homo sapiens), Q6PIK1 (protein)
# chain: MAGFPLLLTLLTHCAGSWGQSLLTQPPSVSGTPGQRVTISCSGSSSNIGINYVYWYQQIPGTAPKLLISTNDQRPSGVPDRFSGSKSGTSASLAIGGLRSEDEAHYYCAAWDDSMSGPGYAFGTGTKVTVLRQPKANPTVTLFPPSSEELQANKATLVCLISDFYPGAVTVAWKADGSPVKAGVETTKPSKQSNNKYAASSYLSLTPEQWKSHRSYSCQVTHEGSTVEKTVAPTECS
# Tests used:
# Test in all cases: glycan array binding signal (z-score within array); higher = stronger binding
# Conditions in all cases: glycan notation: IUPAC condensed, linker removed
# [1] = target: Fuc(a1-3)[GalNAc(b1-4)]GlcNAc
# How it was run: (§1)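 Glycan array binding is given as a within-array Z-score, which can be read as non-binding when negative. The arrays, 3228 of them, came from the Consortium for Functional Glycomics database and were retained only where the protein sequence was available. Z-scores were averaged across arrays of the same protein sequence at different concentrations or buffers and across linkers.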
# Fuc(a1-4)GlcNAc = target: Fuc(a1-4)GlcNAc
# How it was run: as §1
# Fuc(b1-3)GlcNAc = target: Fuc(b1-3)GlcNAc
# How it was run: as §1
# Gal(a1-2)Gal = target: Gal(a1-2)Gal
# How it was run: as §1
# Gal(a1-3)Gal = target: Gal(a1-3)Gal
# How it was run: as §1
# Gal(a1-3)Gal(b1-3)GlcNAc = target: Gal(a1-3)Gal(b1-3)GlcNAc
# How it was run: as §1
# Gal(a1-3)Gal(b1-4)Glc = target: Gal(a1-3)Gal(b1-4)Glc
# How it was run: as §1
# Gal(a1-3)Gal(b1-4)GlcNAc = target: Gal(a1-3)Gal(b1-4)GlcNAc
# How it was run: as §1
# [2] = target: Gal(a1-3)Gal(b1-4)[Fuc(a1-3)]GlcNAc
# How it was run: as §1
# Gal(a1-3)GalNAc = target: Gal(a1-3)GalNAc
# How it was run: as §1
# [3] = target: Gal(a1-3)[Gal(a1-4)]Gal(b1-4)GlcNAc
# How it was run: as §1
# Gal(a1-4)Gal(b1-4)Glc = target: Gal(a1-4)Gal(b1-4)Glc
# How it was run: as §1
# Gal(a1-4)Gal(b1-4)GlcNAc = target: Gal(a1-4)Gal(b1-4)GlcNAc
# How it was run: as §1
# Gal(a1-4)GlcNAc = target: Gal(a1-4)GlcNAc
# How it was run: as §1
# Gal(a1-6)Glc = target: Gal(a1-6)Glc
# How it was run: as §1
# Gal(b1-2)Gal = target: Gal(b1-2)Gal
# How it was run: as §1
# Gal(b1-3)Gal = target: Gal(b1-3)Gal
# How it was run: as §1
# Gal(b1-3)Gal(b1-4)GlcNAc = target: Gal(b1-3)Gal(b1-4)GlcNAc
# How it was run: as §1
# Gal(b1-3)GalNAc = target: Gal(b1-3)GalNAc
# How it was run: as §1
# [4] = target: Gal(b1-3)GalNAc(b1-3)Gal(a1-4)Gal(b1-4)Glc
# How it was run: as §1
# [5] = target: Gal(b1-3)GalNAc(b1-4)Gal(b1-4)Glc
# How it was run: as §1
# [6] = target: Gal(b1-3)GalNAc(b1-4)[Neu5Ac(a2-3)]Gal(b1-4)Glc
# How it was run: as §1
# Gal(b1-3)GlcNAc = target: Gal(b1-3)GlcNAc
# How it was run: as §1
# [7] = target: Gal(b1-3)GlcNAc(b1-2)Man(a1-3)[Gal(b1-3)GlcNAc(b1-2)Man(a1-6)]Man(b1-4)GlcNAc(b1-4)GlcNAc
# How it was run: as §1
# [8] = target: Gal(b1-3)GlcNAc(b1-3)Gal(b1-3)GlcNAc
# How it was run: as §1
# [9] = target: Gal(b1-3)GlcNAc(b1-3)Gal(b1-4)Glc
# How it was run: as §1
# [10] = target: Gal(b1-3)GlcNAc(b1-3)Gal(b1-4)GlcNAc
# How it was run: as §1
# [11] = target: Gal(b1-3)[Fuc(a1-4)]GlcNAc
# How it was run: as §1
# [12] = target: Gal(b1-3)[Fuc(a1-4)]GlcNAc(b1-3)Gal(b1-3)[Fuc(a1-4)]GlcNAc
# How it was run: as §1
# [13] = target: Gal(b1-3)[Fuc(a1-4)]GlcNAc(b1-3)Gal(b1-4)GlcNAc
# How it was run: as §1
# [14] = target: Gal(b1-3)[Fuc(a1-4)]GlcNAc(b1-3)Gal(b1-4)[Fuc(a1-3)]GlcNAc
# How it was run: as §1
# [15] = target: Gal(b1-3)[GlcNAc(b1-6)]GalNAc
# How it was run: as §1
# [16] = target: Gal(b1-3)[Neu5Ac(a2-6)]GalNAc
# How it was run: as §1
# [17] = target: Gal(b1-3)[Neu5Ac(a2-6)]GlcNAc(b1-6)Gal(b1-4)Glc
# How it was run: as §1
# [18] = target: Gal(b1-3)[Neu5Ac(b2-6)]GalNAc
# How it was run: as §1
# [19] = target: Gal(b1-4)GalNAc(a1-3)[Fuc(a1-2)]Gal(b1-4)GlcNAc
# How it was run: as §1
# [20] = target: Gal(b1-4)GalNAc(b1-3)[Fuc(a1-2)]Gal(b1-4)GlcNAc
# How it was run: as §1
# Gal(b1-4)Glc = target: Gal(b1-4)Glc
# How it was run: as §1
# Gal(b1-4)Glc6S = target: Gal(b1-4)Glc6S
# How it was run: as §1
# Gal(b1-4)GlcNAc = target: Gal(b1-4)GlcNAc
# How it was run: as §1
# [21] = target: Gal(b1-4)GlcNAc(a1-6)Gal(b1-4)GlcNAc
# How it was run: as §1
# [22] = target: Gal(b1-4)GlcNAc(b1-2)Man(a1-3)[Gal(b1-4)GlcNAc(b1-2)Man(a1-6)]Man(b1-4)GlcNAc(b1-4)GlcNAc
# How it was run: as §1
# [23] = target: Gal(b1-4)GlcNAc(b1-3)Gal(b1-3)GlcNAc
# How it was run: as §1
# [24] = target: Gal(b1-4)GlcNAc(b1-3)Gal(b1-4)Glc
# How it was run: as §1
# [25] = target: Gal(b1-4)GlcNAc(b1-3)Gal(b1-4)GlcNAc
# How it was run: as §1
binder,measurement,setting,value
B1,glycan array binding signal (z-score),[1],0.354
same,glycan array binding signal (z-score),Fuc(a1-4)GlcNAc,-0.987
same,glycan array binding signal (z-score),Fuc(b1-3)GlcNAc,-0.12
same,glycan array binding signal (z-score),Gal(a1-2)Gal,-0.884
same,glycan array binding signal (z-score),Gal(a1-3)Gal,0.2
same,glycan array binding signal (z-score),Gal(a1-3)Gal(b1-3)GlcNAc,-0.979
same,glycan array binding signal (z-score),Gal(a1-3)Gal(b1-4)Glc,-1.04
same,glycan array binding signal (z-score),Gal(a1-3)Gal(b1-4)GlcNAc,0.187
same,glycan array binding signal (z-score),[2],0.315
same,glycan array binding signal (z-score),Gal(a1-3)GalNAc,0.154
same,glycan array binding signal (z-score),[3],-1.03
same,glycan array binding signal (z-score),Gal(a1-4)Gal(b1-4)Glc,0.573
same,glycan array binding signal (z-score),Gal(a1-4)Gal(b1-4)GlcNAc,-0.228
same,glycan array binding signal (z-score),Gal(a1-4)GlcNAc,-0.936
same,glycan array binding signal (z-score),Gal(a1-6)Glc,0.141
same,glycan array binding signal (z-score),Gal(b1-2)Gal,-0.714
same,glycan array binding signal (z-score),Gal(b1-3)Gal,-0.918
same,glycan array binding signal (z-score),Gal(b1-3)Gal(b1-4)GlcNAc,-0.929
same,glycan array binding signal (z-score),Gal(b1-3)GalNAc,-0.77
same,glycan array binding signal (z-score),[4],0.426
same,glycan array binding signal (z-score),[5],-0.118
same,glycan array binding signal (z-score),[6],-0.926
same,glycan array binding signal (z-score),Gal(b1-3)GlcNAc,-0.473
same,glycan array binding signal (z-score),[7],-1.05
same,glycan array binding signal (z-score),[8],0.26
same,glycan array binding signal (z-score),[9],-0.803
same,glycan array binding signal (z-score),[10],0.658
same,glycan array binding signal (z-score),[11],-0.195
same,glycan array binding signal (z-score),[12],-0.994
same,glycan array binding signal (z-score),[13],-0.946
same,glycan array binding signal (z-score),[14],0.657
same,glycan array binding signal (z-score),[15],-0.568
same,glycan array binding signal (z-score),[16],-0.977
same,glycan array binding signal (z-score),[17],-0.733
same,glycan array binding signal (z-score),[18],0.245
same,glycan array binding signal (z-score),[19],-0.011
same,glycan array binding signal (z-score),[20],-0.873
same,glycan array binding signal (z-score),Gal(b1-4)Glc,-0.187
same,glycan array binding signal (z-score),Gal(b1-4)Glc6S,0.905
same,glycan array binding signal (z-score),Gal(b1-4)GlcNAc,-0.557
same,glycan array binding signal (z-score),[21],-0.945
same,glycan array binding signal (z-score),[22],0.659
same,glycan array binding signal (z-score),[23],0.805
same,glycan array binding signal (z-score),[24],0.133
same,glycan array binding signal (z-score),[25],-0.321

# An excerpt of these results, as tab-separated lines:
binder	measurement	setting	value
B1	glycan array binding signal (z-score)	Gal(b1-2)Gal	-0.714
same	glycan array binding signal (z-score)	Gal(b1-3)Gal	-0.918
